The other results are listed elsewhere or left out. Further columns of the screen follow, without active or inactive calls. The list favours compounds with an active or inconclusive main result. Potencies come from curve fits of mixed quality, noted in brackets.

This assay is described as follows: qHTS Assay for Lipid Storage Modulators in Drosophila S3 Cells.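 As to cell number change: cells counted by Cell Tracker Red CMTPX staining in the red channel.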 Conditions: BODIPY lipid droplet fluorescence, 18-24 h; for cell number change: measured here: cell count max response, cells fed with added oleic acid. Summed up: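 Drosophila S3 cells got compounds at several concentrations plus oleic acid (400 uM solution). Laser-scanning cytometry with 488 nm excitation read lipid droplets at 500-530 nm and cells at 575-640 nm. Percent activity was relative to 20 uM Triacsin C.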

[1] abbreviates: measured here: lipid fluorescence (Fed channel) AC50, cells fed with added oleic acid.
Setting [2] is: measured here: cell number channel AC50, cells fed with added oleic acid.

Broadly, the AC50 is the midpoint of the concentration-response curve, whichever way the signal moves. A low value points to greater potency. On to `Fc1ccc(NC(=S)Nc2cccc3ccccc23)cc1F`, for which the cell number change was -13.3%. For the same compound, the AC50 under setting [1] is 35500 nM [falling, single point].
As for `CCNc1ccc(P(=O)(c2ccccc2)c2ccccc2)cc1`, the cell number change is 67.9%. Further, the concentration at half-maximal activity (AC50) under setting [2] is 820 nM [rising, partial curve, poor fit]. The AC50 under setting [1] was 1460 nM [rising, full curve].
With `COc1cccc(-c2nnn(CC(=O)Nc3cc(OC)c(NC(=O)c4ccco4)cc3OC)n2)c1`, the cell number change is -75.1%. Under setting [2], the AC50 was 29100 nM [falling, single point].
For `O=c1nc(-c2ccccc2)c2ccccc2[nH]1`, the cell number change is -1.31%. Besides, under setting [1], the AC50 is 6510 nM [falling, single point].
Take `CN(C)S(=O)(=O)c1cc(NC(=O)CN2CCN(c3ccc(O)cc3)CC2)ccc1Cl`: the cell number change was 46.8%. Further, under setting [2], the AC50 was 4.61 nM [rising, full curve, poor fit].
Turning to `O=c1[nH]c(CSc2nnc(-c3ccccc3)n2C2CCCCC2)nc2ccccc12`, the cell number change amounted to 25.8%. Further, under setting [2], the AC50 is 2310 nM [rising, full curve, poor fit]. Further, under setting [1], the AC50 was 3260 nM [rising, full curve].
In the case of `CCC1(CC)NC(=S)N(Nc2ccccc2)C1=O`, the cell number change is 7.49%. The AC50 under setting [1] was 9200 nM [falling, partial curve].
With `O=C(CNc1cc(S(=O)(=O)N2CCCC2)ccc1OCC(F)(F)F)Nc1ccc(SC(F)F)cc1`, the cell number change was found to be 31.8%. Besides, under setting [2], the AC50 was 5.17 nM [rising, full curve, poor fit]. Besides, the AC50 under setting [1] was 29100 nM [falling, single point].
With `O=C(Cc1ccccc1)Nc1c(Cl)ccc2nsnc12`, the cell number change was 25.2%. Further, the AC50 under setting [1] is 8200 nM [rising, partial curve].
For the compound `Cc1ccnc(NC(=O)CCN2C(=O)c3ccccc3S2(=O)=O)n1`, the AC50 was 73.1 nM [rising, full curve, poor fit] under setting [2] and 23100 nM [rising, partial curve, poor fit] under setting [1].
For `COc1ccc(CCNC(=O)CNS(=O)(=O)c2ccc(N(C)C)c([N+](=O)[O-])c2)cc1OC`, the cell number change is -30.6%. Further, the AC50 under setting [2] was 231 nM [falling, full curve, poor fit]. Besides, the AC50 under setting [1] is 164 nM [falling, single point].
For `COc1ccc(CCN(C)C(=O)c2ccc(COc3ccccc3)o2)cc1OC`, the cell number change is -33.4%. Also, under setting [2], the AC50 was 23100 nM [falling, single point].
For the compound `CNC(=O)c1c(NC(=O)c2nc3ccccc3s2)sc2c1CCC2`, the cell number change was -2.24%. For the same compound, under setting [2], the AC50 is 651 nM [rising, full curve]. Further, the AC50 under setting [1] is 291 nM [rising, full curve].
In the case of `Cc1ccc(C)n1NC(=O)c1ccccc1[N+](=O)[O-]`, the cell number change came out at 30.9%. Further, under setting [2], the AC50 is 1300 nM [rising, partial curve, poor fit]. The AC50 under setting [1] was 25900 nM [rising, single point].
`CCCc1cc(=O)[nH]c2nnc(SCC(=O)Nc3nnc(SCC)s3)n12`: the cell number change was -66.3%. Further, the AC50 under setting [2] was 29100 nM [falling, single point].
Consider `Cc1cc(S(=O)(=O)N2CCN(CC(=O)NC(C)(C#N)C3CC3)CC2)ccc1Br` (stereo not given), for which the cell number change was determined as 86.5%.
As to `CCS(=O)(=O)NC(C)C(c1cccs1)N1CCN(C)CC1` (stereo not given), the cell number change was -71.7%. Further, the AC50 under setting [2] was 29100 nM [falling, single point]. Further, the AC50 under setting [1] is 29100 nM [falling, single point].
Take `Cc1ccc(CN2C(=O)N/C(=C/c3cc(C)n(-c4ccccn4)c3C)C2=O)cc1`: the cell number change came out at 43.5%. Further, the AC50 under setting [2] is 29100 nM [rising, single point]. In addition, the AC50 under setting [1] was 4.61 nM [falling, full curve, poor fit].
Take `COc1ccc(CC(=O)N/N=C(\C)c2cccs2)cc1`: the cell number change is -6.61%. Moreover, the AC50 under setting [1] was 580 nM [rising, single point].
Consider `Cn1c(=O)n(C)c2cc(C(=O)Nc3ccc4c(c3)OCO4)ccc21`, for which the AC50 by setting is: under setting [2], 164 nM [rising, full curve, poor fit]; under setting [1], 651 nM [rising, partial curve].
As for `COc1cc(/C=N/Nc2nc(Nc3ccccc3)nc(-n3nc(C)cc3C)n2)cc(OC)c1OC`, the cell number change is -22%. Further, the AC50 under setting [1] was 8200 nM [falling, partial curve, poor fit].
For `O=[N+]([O-])c1ccc(-[n+]2nc(-c3ccccc3)nn2-c2ccccc2)cc1`, the cell number change is -43.4%. Further, under setting [2], the AC50 was 411 nM [falling, full curve, poor fit]. Besides, the AC50 under setting [1] is 231 nM [falling, full curve].
In the case of `NC(=O)C1(N2CCCCC2)CCN(S(=O)(=O)c2ccc(Cl)s2)CC1`, under setting [1], the AC50 is 29100 nM [falling, single point].
For the compound `O=C(CN1C(=O)COc2ccccc21)NCCN1CCOCC1`, the cell number change is 21.8%. The AC50 under setting [1] was 29100 nM [falling, single point].
`CCOc1ccc(S(=O)(=O)N(C)c2ccc(OCC(=O)OCc3c(C)noc3C)cc2)cc1`: the cell number change was -35.7%. Besides, under setting [2], the AC50 is 20600 nM [falling, partial curve]. The AC50 under setting [1] is 16400 nM [falling, partial curve].
Regarding `Cc1cc(NC(=S)NC(=O)/C=C/c2ccc(S(=O)(=O)N3CCOCC3)cc2)ccc1Br`, the cell number change was found to be 39.1%. The AC50 under setting [2] was 461 nM [falling, single point]. The AC50 under setting [1] is 29100 nM [rising, partial curve, poor fit].
For the compound `Cc1ccc(Nc2nc(=O)c3cccnc3s2)cc1`, the cell number change is -34.2%. Further, the AC50 under setting [2] was 18400 nM [falling, single point]. Further, the AC50 under setting [1] is 326 nM [rising, partial curve].
Regarding `C=CCn1c(=O)c2ccccc2n2c(SCc3nnc(-c4ccccc4Br)o3)nnc12`, the cell number change is -0.2%. In addition, the AC50 under setting [1] was 1300 nM [rising, partial curve].
In the case of `COC(=O)c1c(C)oc2ccc(N(C(C)=O)S(=O)(=O)c3ccccc3)cc12`, the cell number change is -38.5%. Besides, the AC50 under setting [2] was 1640 nM [falling, full curve, poor fit]. In addition, under setting [1], the AC50 is 5170 nM [rising, single point].
On to `CCC(=O)Nc1c(C)ccc2nsnc12`, for which the cell number change is -17.2%. Further, the AC50 under setting [1] is 206 nM [falling, partial curve, poor fit].
Consider `Cc1cc(C(=O)N/N=C/c2c(C)n(C)c3ccccc23)n[nH]1`, for which the cell number change was determined as 30.5%. Moreover, under setting [2], the AC50 is 4.61 nM [rising, full curve, poor fit]. The AC50 under setting [1] was 2310 nM [rising, full curve].
For the compound `C=CCn1c(SCC(=O)NC(=O)NCCC)nnc1C1CCCCC1`, the cell number change worked out at 2.08%. In addition, the AC50 under setting [1] was 461 nM [falling, partial curve, poor fit].
With `COCCCNCCOCCOc1ccccc1-c1ccccc1`, the AC50 under setting [2] was 1030 nM [falling, partial curve, poor fit].
Regarding `O=c1cc(-c2ccccc2Cl)oc2c(NS(=O)(=O)c3cc(Cl)cc(Cl)c3O)ccc(O)c12`, the cell number change is -53.1%. Further, under setting [2], the AC50 is 18400 nM [falling, single point]. Further, under setting [1], the AC50 is 18400 nM [falling, single point].
For the compound `O=C(C1CC1)N1N=C(c2cccc(Br)c2)CC1(O)C(F)(F)F` (stereo not given), the AC50 under setting [2] is 6510 nM [falling, single point].
On to `CSc1ccccc1NC(=O)C1=CC(c2cccs2)=NS(=O)(=O)N1C`, for which the AC50 under setting [1] is 1160 nM [falling, full curve].
Consider `CCN1CCCC1CN(Cc1cc2ccc(C)cc2[nH]c1=O)C(=S)Nc1ccc(OC)cc1` (stereo not given), for which the cell number change was found to be 28.5%. In addition, the AC50 under setting [2] was 130 nM [rising, full curve, poor fit].
As to `O=C(Nc1ccccc1C(=O)N1CCN(Cc2ccccc2)CC1)c1ccc(F)cc1`, the cell number change is 62%. Moreover, under setting [2], the AC50 is 259 nM [rising, partial curve, poor fit].
In the case of `COC(=O)c1cc(C(=O)NC(C)C2CC3CCC2C3)cc([N+](=O)[O-])c1` (stereo not given), the cell number change was -16.7%.
As for `Cc1cccc(NC(=O)CSc2ncnc3nc[nH]c23)c1`, under setting [1], the AC50 is 206 nM [rising, full curve, poor fit].
In the case of `CS(=O)(=O)N(Cc1ccccc1Cl)c1ccc(C(=O)N2CCCC2)cc1`, the cell number change was 20.1%. For the same compound, the AC50 under setting [1] was 20600 nM [falling, single point].
As for `O=C(NNC(=O)c1ccc2nc[nH]c2c1)c1ccccc1`, the cell number change worked out at 22.6%. In addition, the AC50 under setting [2] is 3260 nM [falling, single point].
Regarding `CNC(=O)c1ccccc1Sc1ccccc1C#N`, the cell number change was 16%. Also, the AC50 under setting [1] is 6510 nM [falling, single point].
On to `CCCn1nnnc1SCC(=O)NCc1cccs1`, for which the cell number change is -4.19%. The concentration at half-maximal activity (AC50) under setting [1] was 29100 nM [falling, single point].
Consider `CCN(c1ccccc1)S(=O)(=O)c1ccc(C(=O)NCCc2ccc(S(N)(=O)=O)cc2)cc1`, for which the cell number change came to 16.7%.
With `O=C(O)CCn1[nH]c(=O)c2ccccc2c1=O`, the cell number change is -38.3%. The AC50 under setting [2] is 231 nM [falling, full curve, poor fit]. Under setting [1], the AC50 is 231 nM [falling, full curve, poor fit].
In the case of `CC1CCN(C(=O)c2ccc3c(=O)n4c(nc3c2)CCCCC4)CC1`, the cell number change amounted to 94.3%. The AC50 under setting [1] was 29100 nM [falling, single point].
In the case of `Nc1nc(SCc2ccc(Br)cc2)n[nH]1`, the cell number change amounted to 13.5%. For the same compound, the AC50 under setting [1] is 2910 nM [falling, full curve].
In the case of `CC1(C(=O)c2ccccc2)C2c3c(ccc4ccccc34)OC(=O)C21C(=O)N1CCOCC1` (stereo not given), the AC50 under setting [2] was 116 nM [rising, partial curve, poor fit].
As for `CCOC(=O)CC1NCCc2c1[nH]c1ccc(OC)cc21` (stereo not given), the cell number change turned out to be 18.5%. For the same compound, the AC50 under setting [1] is 7310 nM [rising, partial curve].
For the compound `O=C(c1cccs1)N1CCN(c2cccc(Cl)c2)CC1`, the cell number change was -4.69%.
In the case of `O=C(c1cccs1)N(C(=O)c1cccs1)c1ccccn1`, the cell number change amounted to 2.53%. Further, the AC50 under setting [2] was 1840 nM [rising, partial curve]. Further, the AC50 under setting [1] was 1640 nM [rising, partial curve].
As for `Cc1noc(C)c1C(=O)OCC(=O)NC1CC1`, the cell number change is -20.5%. In addition, the AC50 under setting [2] is 6510 nM [falling, single point].
On to `Cc1cccc(N2CCN(Cc3ccc(Br)o3)CC2)c1C`, for which the cell number change is -23.1%. Besides, the AC50 under setting [1] was 23100 nM [falling, single point].

The values above are taken from PubChem BioAssay AID2685 (National Center for Advancing Translational Sciences (NCATS), 2010).
